Laboratory results taken from patent US12559461B2, “Antibiotic adjuvant compounds” (UNIVERSITY OF NOTRE DAME DU LAC, priority 2020, dated 2026).
Where “and” joins values, the source holds several entries; their conditions need not be identical. Equal entries are not always repeated. At least one read-out could not be matched to a standard name with certainty.

Test system: AB5075
Experiment: Broth microdilution clarithromycin (CLR) potentiation and dose-response of adjuvant
Assay type: cell-based, Acinetobacter baumannii
Details: compound tested at 30 μM, hydrochloride
Description: Bacterial Strains and Antimicrobial Agents. Acinetobacter baumannii clinical isolate 5075 was obtained from Dr. Colin Manoil at the University of Washington. Colonies were grown on lysogeny broth (LB) agar. Cation-adjusted Mueller-Hinton Broth (CAMHB) (catalog number 212322) were purchased from BD Diagnostics. LB broth was purchased from Fisher Scientific (catalog number BP9722-2). […] Colistin sulfate salt (catalog number C4461) was purchased from Sigma Aldrich. All assays were completed in duplicate and repeated at least two separate times. All compounds were dissolved as their HCl salts in molecular biology grade DMSO as 10 or 100 mM stock solutions and stored at −20° C. Colistin was dissolved in sterile water while clarithromycin was dissolved in molecular biology grade DMSO.
Broth microdilution method for antibiotic potentiation. Day cultures (6 h) of bacteria in CAMHB were subcultured to 5×10^5 CFU/mL in CAMHB. Aliquots (4 mL) were placed in culture tubes and dosed with compound from 10 mM stock samples to give the desired concentration of the compound to be tested against the particular bacterial strain; this insured non-toxic DMSO concentrations ≤0.3% in each well. […] MIC values were determined as the lowest concentration at which no bacterial growth was observed, and fold reductions were determined by comparison to antibiotic control lane. […]

SMILES: Cl.Nc1nc(-c2ccc(NC(=O)c3cc(Cl)cc(Cl)c3)cc2F)c[nH]1 [Compound 10d, N-(4-(2-amino-1H-imidazol-4-yl)-3-fluorophenyl)-3,5-dichlorobenzamide hydrochloride]
- Fold Reduction of CLR MIC: 64 fold and 128 fold
